Test results as given in the supplement of paper PMC3334620.
Over roughly 33,000 sequences, “E-score (-0.5 to 0.5)” has its median near -0.0059; the highest 2% begin near 0.26. The list shows a part of the results.

What follows are sequences tested against T1, Cin5 (UniProt P40917) (assay: PBM E-score (8-mer binding enrichment) (E-score (-0.5 to 0.5)); higher = stronger / more preferred TF binding). Settings: protein concentration: 100 nM; construct: GST-full length.
T1 sequence: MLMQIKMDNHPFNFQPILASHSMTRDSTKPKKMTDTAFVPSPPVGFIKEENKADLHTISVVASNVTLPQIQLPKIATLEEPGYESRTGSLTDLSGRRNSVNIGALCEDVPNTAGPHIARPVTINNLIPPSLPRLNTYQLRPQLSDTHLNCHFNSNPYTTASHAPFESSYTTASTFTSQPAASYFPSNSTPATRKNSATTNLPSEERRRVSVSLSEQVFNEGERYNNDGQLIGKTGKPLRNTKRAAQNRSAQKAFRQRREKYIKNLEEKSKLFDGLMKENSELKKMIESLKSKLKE
How it was run: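 Detection of bound protein used fluorescent anti-GST, with scans normalised by masliner. The proteins were GST-tagged yeast transcription factors applied at about 100-200 nM to universal all-10-mer Agilent arrays made double-stranded by primer extension. Each ungapped eight-base word, pooled with its reverse complement, was scored with an E-score from the Universal PBM Analysis Suite.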

Sequence | PBM E-score
TATCAACA | 0.108
CGCGCCCA | 0.166
TAACTTAA | 0.189
GCAGTCGA | -0.0448
ACGGCTAA | 0.192
AGAGTAAG | 0.154
CCGTGCAA | -0.114
GGATGACC | 0.00035
AACACTAT | 0.23
AGTGTCAC | -0.0637
CTGCTGAA | -0.212
AGGGGTCG | -0.128
CTGTCGTC | -0.0636
GACCAGCC | -0.159
AGCAGCAC | -0.124
TACAACTA | 0.199
ATGAAACA | 0.104
ACGTGACA | 0.0501
ACTGGACA | -0.118
ACTACTCT | -0.0197
GACCGAGC | -0.253
AGCGTCTA | -0.0994

Sequence | PBM E-score
GTCCGTCA | 0.0752
ACACCGAA | 0.107
AGAAACCT | 0.0967
CAGCGTTC | -0.00468
GCATGGAA | 0.0398
AATGTATA | 0.243
GCTTTATA | -0.0287
GACCGACA | -0.00742
GCAATAAC | 0.178
ATAGTATA | 0.215
AATCGTAC | 0.138
AATAGGAC | 0.133
AAAATGGA | 0.29
CAGTCAGC | -0.0612
CTTCAAAA | 0.0157
CATGTACG | 0.165
ACTCAATA | 0.241
GAATCGAA | 0.152
GAGGACGA | 0.0726
ACACCTCG | 0.0498
ATTGCACG | 0.0324
CTCCCTGC | -0.271

Sequence | PBM E-score
CTCAGTTA | 0.00048
CCGGTAGC | -0.218
AATTAGTA | 0.308
AGTCTCTA | -0.142
CGAAGAAC | 0.0305
GTGCGAGA | -0.0361
CGGTCGAG | -0.171
CTCTCTCC | -0.245
TGATGAAA | 0.0478
GCAGGAAA | -0.027
CTCATTAA | 0.175
TCATTGGA | 0.0163
CCCTATGA | -0.066
CCATTGCG | 0.0221
ATAAGCAA | 0.349
TGAGTACA | 0.149
AAGGCACT | -0.104
TGAGACAA | 0.0273
CCTTGAAA | -0.0534
GAACCATA | 0.0184
ATGCGGTG | -0.224
AGTCTATG | -0.109

Exported as a markdown table: part of the list above

| Sequence | PBM E-score |
| --- | --- |
| CGCGCCCA | 0.166 |
| TAACTTAA | 0.189 |
| ACGGCTAA | 0.192 |
| CCGTGCAA | -0.114 |
| GGATGACC | 0.00035 |
| AGTGTCAC | -0.0637 |
| CTGTCGTC | -0.0636 |
| GACCAGCC | -0.159 |
| TACAACTA | 0.199 |
| ATGAAACA | 0.104 |
| ACTGGACA | -0.118 |
| GACCGAGC | -0.253 |
| CAGCGTTC | -0.00468 |
| GCAATAAC | 0.178 |
| ATAGTATA | 0.215 |
| AATAGGAC | 0.133 |
| AAAATGGA | 0.29 |
| CTTCAAAA | 0.0157 |
| GAGGACGA | 0.0726 |
| CTCCCTGC | -0.271 |
| AATTAGTA | 0.308 |
| GTGCGAGA | -0.0361 |
| CTCTCTCC | -0.245 |
| GCAGGAAA | -0.027 |
| TCATTGGA | 0.0163 |
| CCCTATGA | -0.066 |
| ATAAGCAA | 0.349 |
| TGAGACAA | 0.0273 |
| ATGCGGTG | -0.224 |
| AGTCTATG | -0.109 |

Additional results

Sequence | PBM E-score
TATGACGA | 0.0753
CTGCGGTC | -0.176
ATCAAGCA | 0.114
CCAGTATA | 0.048
ATCCATAG | -0.0732
CCTTAAAA | -0.0716
GAAAGCCC | 0.0262
ATGAAGAA | 0.115
GCTCATAC | -0.138
ATACTGGC | -0.0781
GAATTCTC | 0.0994
AGAGCCCA | -0.081
GATCCACC | -0.0681
AACGTGGT | -0.0487
GGCTGGTA | -0.123
AGTTGTGC | 0.0863
CCATCGGG | -0.049
AGGTGCAG | -0.118
CCGATTCC | 0.0486
AGAGCCGG | -0.295
CGGTTCGA | 0.003
TAAGGAAA | 0.0547

Sequence | PBM E-score
ATTGTTAC | 0.276
AGCTTATG | 0.296
CAGTAGAG | -0.0798
CTGGCAAG | -0.0803
ATTATCTC | 0.306
AAAAGACG | 0.0596
ACAAGTTA | 0.102
ACGTCTGC | -0.0531
GAGTCGGA | -0.08
GGTGCAAC | -0.113
AGGACGCG | -0.156
CACGACCG | -0.263
AGCTCGCG | 0.0892
ACGCCGAG | -0.117
ACAGCAGT | 0.0218
CGAAGCGA | -0.0929
AAACTCAA | 0.201
ATGTTTCC | 0.143
AGAGGGAC | -0.234
CGTGGGTC | -0.133
GCCAGAGC | -0.331
CCCGCCAA | -0.0185
